Variants at the floor of the assay are shown more often than the library holds them.
B1: tRNA (parent)
chain: GUUCCGUUGGCGUAAUGGUAACGCGUCUCCCUCCUAAGGAGAAGACUGCGGGUUCGAGUCCCGUACGGAACG

Variants of: B1
Experiment: yeast fitness relative to wild type (ratio to wild type); higher = fitter; tRNA-Arg(CCU), competitive growth, 37 C, YPD
Procedure, shortened: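 Genotype frequency changes were the basis for Darwinian fitness relative to wild type. The frequencies came from 100-nucleotide paired-end sequencing of gene amplicons from the start population and each end population of pooled yeast strains with tRNA-Arg(CCU) gene variants at the native locus. Competition ran in YPD at 37°C for 24 hours in six replicates, genotypes needed ≥ 100 starting reads, and estimates < 0.5 were set to 0.5.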

| Variant | yeast fitness |
| --- | --- |
| GUUACGUUGGUGUAAUGGUAACGCGUCUCCCUGCUAAGGAGCAGACUGUGGGUUGGAGUCCCGUACGGAACG [C4A C11U C33G A42C C49U C55G] | ≤ 0.5 |
| GUUCCAUUGGCGUAAUGGUUACGCGUCUCCCUCCUAAGGAGAAGACUGCGGGUUCGAGUCCCGUACGCAACG [G6A A20U G68C] | ≤ 0.5 |
| GUCCCGUUGGCGUAAUGGUAACGCGUCUCCCUCCUAAGGAGAAGACUGCGGGAUCGAGUCCCGUACGGAACG [U3C U53A] | 0.664 |
| GUUCCGUUGGCGUAAUGGUCACGCGUCUCCCUCAUAAGGAGAAGACUGCGGGUUCGAGUCCCGUCCGGACCG [A20C C34A A65C A70C] | ≤ 0.5 |
| GUUCGGUUGGGGUACUGGUAACGCGUCUCCCUCCUAAGGAGAAGUCUGUGGGUUCCAGUCCCCUACGGAACG [C5G C11G A15C A45U C49U G56C G63C] | ≤ 0.5 |
| GUUCCGUUGGCGUAAUGGUAACGCGUCUCCCUCCUAAGGAGAAGACUGCGGGUUUGAGUCCCGUACCAAACG [C55U G67C G68A] | ≤ 0.5 |
| GUUCCGCUGGCGUAAUGGUAACGGGUCUCCCUCCUAAGGAGAAGACUGGGGGUUCGAGUCCCGUACGGAACG [U7C C24G C49G] | ≤ 0.5 |
| GUCCCGUUGGCGUAAUGGUAACGCGUCUCCCUCCUAAGGAGAAGACUGGGGGUUCGAGUCCCGUUCGGAACG [U3C C49G A65U] | 0.658 |
| GUUACGUUGGCGUAAUGGUAACGCGACUCCCGCCUAAGGAGAAGACUGCGGGAUCGAGUCCAGUACGCAACG [C4A U26A U32G U53A C62A G68C] | ≤ 0.5 |
| GUUCCGUUGGCGUAAUGGUAACGGGACUCCCUCCUAAGGACAAGACUGCGGGUUCGAGUCCCGUACGGAACG [C24G U26A G41C] | ≤ 0.5 |
| GUUACGUUGGCGUAAUGGUAACGCGUCUCCCUCCUAAGGAGAAGGCUGCGGGUUCGUGUCCCGUACGGAACG [C4A A45G A57U] | ≤ 0.5 |
| GUUCCGUUGGCGUAAUGGUAACGGGUCUAUCUCCUAAGGAGAAGACUGCAGGUUCGAGUCCUGUACGGAACG [C24G C29A C30U G50A C62U] | ≤ 0.5 |
| GUUCUGUUGGCGUGAUGGUAACGCGUCUCCCUCCUAAGGAGAAGACUGCGGGUUCGAGUCGCGUACGGAACG [C5U A14G C61G] | ≤ 0.5 |
| GUUCUGUUGGCGUAAUGGUAACGCGUCUCCCUCCUAAGGAAAAGACUGCGGGUUCCAGUCCGGUACGGAACG [C5U G41A G56C C62G] | ≤ 0.5 |
| GUUCUGUUGGCGGAAUGGUAACGGGUCUCCCUACUAAGGAGAAGACUGCGGGUUCGAGUCCGGUAUGGAACG [C5U U13G C24G C33A C62G C66U] | ≤ 0.5 |
| GUUCCGUUGGCGUAAUGGUCACGUGUCUCCGUCCUAUGGAGAAGACUGCGGGUUCGAGUGCCGUACGGAACG [A20C C24U C31G A37U C60G] | ≤ 0.5 |
| GUUCCGUUGGCGUAAUAGUAACGCGUCUCCCACCUAAGGAGAAGACUGCGGGUUCGAGUCCUGUACGGAACG [G17A U32A C62U] | ≤ 0.5 |
| GUUCCGUUGGAGUAAUGGUAACGCGUCUCCCUCGUAAGGAGAAGCCUGCGGCUUCGAGUCCCGUACGGAACG [C11A C34G A45C G52C] | ≤ 0.5 |
| GUUGCGUUGGCGUAAUGCUAACGGGUCUGCCUCCUCAGGAGAAGAAUGCGGGUUUGAGUCCCGUACGGAACG [C4G G18C C24G C29G A36C C46A C55U] | ≤ 0.5 |

| Variant | yeast fitness |
| --- | --- |
| GUUGCGUUGGGGUAAUGGUAACGCGUCUCCCUCCUAAGGAGAAGACUGCGCGUUCGAGUCCCGUACGGAACG [C4G C11G G51C] | ≤ 0.5 |
| GUUCCGUUGGCGUAAUGCUAACGCGUCUCCUUCCUAAGGAGAAGACUGCGGAUUCGAGUCCCGUACGGAACG [G18C C31U G52A] | ≤ 0.5 |
| GUUCCGUUGGCGUAAUGGCAACGCGUCUCCCUCCUAAGGAGAAGACUCCGGGUUCGAGUCCCGUAUGGAACG [U19C G48C C66U] | 0.712 |
| GUUCCGUUGGAGUAAUGAUAACGCGUCGCCCUCUUAAGGAGAAGACUGCGGGUUCGAGUCCCGUACGGAACG [C11A G18A U28G C34U] | ≤ 0.5 |
| GUUCUGUUGGCGUAAUGAUAACGCGUCUCCCUCCUAAGGAGAAGACUGCGGGUUCGAGUCCCGUACGGAACG [C5U G18A] | 0.76 |
| GUUCCGUUGGCGUAAUGGUAACGCGUCUCGUUCCUAAGCAGAAGACUGCGGGUUCGAGUCGCGUACGGAACG [C30G C31U G39C C61G] | ≤ 0.5 |
| GUUCCGUCGGCGUAAUGGUAACGCGUGUCCCUCCUAAGGAGAAGACUGCGGGUUCGAGUCCCGGGCGGAACG [U8C C27G U64G A65G] | ≤ 0.5 |
| GUUGCGUUAGCGUAUUGGUAACGCGUCUCCCUACUAAGGAGAAGACUGCGGCUUCGAGUCCCGUACGGAACG [C4G G9A A15U C33A G52C] | ≤ 0.5 |
| GUUCCGUUGGCGUAAUGGUAACGGGUCUCCCUCCUAAGGAGUAGGCUGCGGGUUCGAGUCCCGUACGGAACG [C24G A42U A45G] | ≤ 0.5 |
| GUUCCGUUGGAGAAAUGGUUACGCGUCUGCCUCCUGAGGAGAAGAUUGCGGGUUCGAAUCCCGUACGGAACG [C11A U13A A20U C29G A36G C46U G58A] | ≤ 0.5 |
| GUUCUGUUGGAGUAAUGGUAACGGGUGUCCCUCCUUACGAGAAGACUGCGGGUUCGAGUCCCGUACGGACCG [C5U C11A C24G C27G A36U G38C A70C] | ≤ 0.5 |
| GUUCCGUUGGCGUAAUGGUAACGCGUCUCCGUCCUAAGGAAAAGACUGCGGCUUCGAGUCCCGUUCCGAACG [C31G G41A G52C A65U G67C] | ≤ 0.5 |
| GUUCCGUUGGCGUAAUGGUAACGCGUCUCCAUCCUUAGGCGAAGACUGCGGGUUCGAGUCCCGUACGGAACG [C31A A36U A40C] | ≤ 0.5 |
| GUUCCGUUGGUGUAAUGGUGACGGGUCUCCCUCCUAAGGAGAAGACUGUGGGUUCGAGUCCAGUACGGAACG [C11U A20G C24G C49U C62A] | ≤ 0.5 |
| GUUUCGUUGGCGUAAUGGUAACGUGUCUCCCUCCUAAGGAGAAGACUGCGGGUACGAGUCCCGUACGGAACG [C4U C24U U54A] | ≤ 0.5 |
| GUUCCGUUGGCGUAAUGGUUACGCCUCUCCCUCCUAGGGAGAAGACUGCGGGUUCGAGUCCCGUACGGAACG [A20U G25C A37G] | ≤ 0.5 |
| GUUCCGUUGGCGUAAUGGUAACGCGUCUCCCUCCUAAGGAGAAGACUACGGGUUCGAGUGCCAUACGGAACG [G48A C60G G63A] | ≤ 0.5 |
| GUUCAGUUAGCGUAAUGGUAACGCGUCUCCAUCCUAAGGAGAAGACUGCGGGUUAGAGUCACAUACGGAACG [C5A G9A C31A C55A C61A G63A] | ≤ 0.5 |
| GUUGCGUUAGCGUAAUGGUAACGCGUCUCCCCUCUAAGGAGAAGACUGGGGGUUCGAGUCCCGUACGGAACG [C4G G9A U32C C33U C49G] | ≤ 0.5 |
